From paper PMC3891853 come the findings set out here.

Chains of the proteins cited; added tags and fusions are not shown. Lines headed by an entry give the natural chain unless they say otherwise; changes in a name come on top.
UniProt P04150: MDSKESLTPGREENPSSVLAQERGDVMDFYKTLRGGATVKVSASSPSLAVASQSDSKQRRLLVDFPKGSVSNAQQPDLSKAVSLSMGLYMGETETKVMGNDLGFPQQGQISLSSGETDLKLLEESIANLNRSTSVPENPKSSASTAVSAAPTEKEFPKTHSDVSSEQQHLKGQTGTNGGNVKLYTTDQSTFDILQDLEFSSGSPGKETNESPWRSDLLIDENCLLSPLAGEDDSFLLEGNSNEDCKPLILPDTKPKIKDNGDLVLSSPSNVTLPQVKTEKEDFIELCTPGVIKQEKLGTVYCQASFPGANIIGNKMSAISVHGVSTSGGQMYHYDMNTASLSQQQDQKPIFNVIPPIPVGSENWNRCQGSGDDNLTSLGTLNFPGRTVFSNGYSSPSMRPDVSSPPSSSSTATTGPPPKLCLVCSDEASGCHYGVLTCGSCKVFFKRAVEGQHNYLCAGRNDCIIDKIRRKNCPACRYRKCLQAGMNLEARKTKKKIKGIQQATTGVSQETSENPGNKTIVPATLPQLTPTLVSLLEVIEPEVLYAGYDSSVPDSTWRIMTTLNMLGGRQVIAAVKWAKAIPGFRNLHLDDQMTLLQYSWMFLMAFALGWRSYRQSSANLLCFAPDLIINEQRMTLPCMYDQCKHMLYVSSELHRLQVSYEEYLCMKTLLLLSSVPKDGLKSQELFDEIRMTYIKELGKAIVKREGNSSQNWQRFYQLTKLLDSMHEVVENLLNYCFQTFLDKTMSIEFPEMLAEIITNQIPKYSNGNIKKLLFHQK
UniProt P11142: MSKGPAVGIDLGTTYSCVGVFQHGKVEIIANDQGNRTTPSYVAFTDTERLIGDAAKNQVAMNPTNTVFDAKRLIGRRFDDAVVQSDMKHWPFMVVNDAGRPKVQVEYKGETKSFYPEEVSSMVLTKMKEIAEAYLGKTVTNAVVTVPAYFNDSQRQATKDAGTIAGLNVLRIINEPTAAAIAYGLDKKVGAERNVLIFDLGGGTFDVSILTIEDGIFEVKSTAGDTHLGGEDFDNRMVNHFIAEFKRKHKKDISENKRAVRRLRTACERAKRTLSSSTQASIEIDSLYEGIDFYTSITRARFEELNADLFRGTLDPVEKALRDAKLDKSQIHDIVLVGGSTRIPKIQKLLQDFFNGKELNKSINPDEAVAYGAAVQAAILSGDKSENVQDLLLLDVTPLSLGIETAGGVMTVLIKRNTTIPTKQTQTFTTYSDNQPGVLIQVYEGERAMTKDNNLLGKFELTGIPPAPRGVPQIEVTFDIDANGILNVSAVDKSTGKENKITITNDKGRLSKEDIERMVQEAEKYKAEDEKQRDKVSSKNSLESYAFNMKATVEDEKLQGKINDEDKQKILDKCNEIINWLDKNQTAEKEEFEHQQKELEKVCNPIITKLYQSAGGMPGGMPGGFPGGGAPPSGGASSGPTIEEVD

Results are given in words; binding and its absence hold for the method and conditions named. In cells and extracts the contact can be indirect. For some assays here: Binding calls can cover weak binding; strength is not graded here.

In experiment [1] the target is ligand binding domain of the glucocorticoid receptor (GR-LBD), Myc/His-tagged (UniProt P04150). Briefly: pull-down; GR-LBD immobilised on anti-c-myc agarose; [35S]-labeled in vitro translated Hsc70 in 50% desalted reticulocyte lysate, buffer B (100 mM KOAc, 20 mM HEPES-KOH pH 7.5, 5% glycerol), 5 mM MgOAc2, with or without 1 mM ATP; bound Hsc70 read with a phospho-imager; only the target purified.

The target in experiment [2] is Flag-tagged wild-type Bcl2-associated athanogene 1, medium isoform (BAG-1M) (human). Briefly: co-IP; Flag-tagged NEF precipitated with anti-Flag M2 agarose from 1.5 mg HEK293 cellular extract in 1 ml; no ATP added; eluted with Flag-peptide; Western blot and colloidal Coomassie. For orientation: Immunoblotting shows a protein as a band on a membrane.

On to “Hsc70, in vitro translated and labeled (from UniProt P11142 1-646)”, for which the binding result in experiment [1] is on record as “binds”.

B1: Hsp70-interacting protein (Hip), endogenous (protein, UniProt P50502 1-369)
chain: MDPRKVNELRAFVKMCKQDPSVLHTEEMRFLREWVESMGGKVPPATQKAKSEENTKEEKPDSKKVEEDLKADEPSSEESDLEIDKEGVIEPDTDAPQEMGDENAEITEEMMDQANDKKVAAIEALNDGELQKAIDLFTDAIKLNPRLAILYAKRASVFVKLQKPNAAIRDCDRAIEINPDSAQPYKWRGKAHRLLGHWEEAAHDLALACKLDYDEDASAMLKEVQPRAQKIAEHRRKYERKREEREIKERIERVKKAREEHERAQREEEARRQSGAQYGSFPGGFPGGMPGNFPGGMPGMGGGMPGMAGMPGLNEILSDPEVLAAMQDPEVMVAFQDVAQNPANMSKYQSNPKVMNLISKLSAKFGGQA
With B1, in experiment [2], the binding entry is “no binding”.
